For 22 targets, NP40-soluble protein abundance results are on record in the supplement of paper PMC6411743.

The chains behind the UniProt entries cited, without tags or fusion partners. Where a name states a change or a piece, a line headed by the entry shows the natural chain unless it says otherwise.
UniProt Q13951, whole entry: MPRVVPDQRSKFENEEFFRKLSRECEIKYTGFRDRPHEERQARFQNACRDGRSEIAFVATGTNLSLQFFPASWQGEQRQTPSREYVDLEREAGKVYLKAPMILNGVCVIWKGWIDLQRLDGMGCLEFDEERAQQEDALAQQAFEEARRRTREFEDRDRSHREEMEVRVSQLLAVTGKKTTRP
UniProt Q13546: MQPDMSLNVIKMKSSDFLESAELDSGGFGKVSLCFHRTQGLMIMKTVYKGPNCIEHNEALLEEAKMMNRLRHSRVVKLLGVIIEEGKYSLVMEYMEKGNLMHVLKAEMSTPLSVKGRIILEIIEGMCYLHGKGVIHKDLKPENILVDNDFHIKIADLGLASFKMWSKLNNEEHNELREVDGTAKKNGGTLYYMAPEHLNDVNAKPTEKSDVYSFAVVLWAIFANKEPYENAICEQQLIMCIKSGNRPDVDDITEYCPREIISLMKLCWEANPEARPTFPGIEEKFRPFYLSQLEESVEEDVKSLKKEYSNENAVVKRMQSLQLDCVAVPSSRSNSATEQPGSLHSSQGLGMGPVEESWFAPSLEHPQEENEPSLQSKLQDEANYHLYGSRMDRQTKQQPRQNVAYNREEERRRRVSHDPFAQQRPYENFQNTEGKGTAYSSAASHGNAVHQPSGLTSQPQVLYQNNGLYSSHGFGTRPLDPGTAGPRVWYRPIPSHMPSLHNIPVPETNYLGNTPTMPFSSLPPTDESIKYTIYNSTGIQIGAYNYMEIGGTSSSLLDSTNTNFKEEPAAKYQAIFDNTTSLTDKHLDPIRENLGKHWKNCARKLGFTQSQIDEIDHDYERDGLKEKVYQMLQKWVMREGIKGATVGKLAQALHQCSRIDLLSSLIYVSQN
UniProt Q13895: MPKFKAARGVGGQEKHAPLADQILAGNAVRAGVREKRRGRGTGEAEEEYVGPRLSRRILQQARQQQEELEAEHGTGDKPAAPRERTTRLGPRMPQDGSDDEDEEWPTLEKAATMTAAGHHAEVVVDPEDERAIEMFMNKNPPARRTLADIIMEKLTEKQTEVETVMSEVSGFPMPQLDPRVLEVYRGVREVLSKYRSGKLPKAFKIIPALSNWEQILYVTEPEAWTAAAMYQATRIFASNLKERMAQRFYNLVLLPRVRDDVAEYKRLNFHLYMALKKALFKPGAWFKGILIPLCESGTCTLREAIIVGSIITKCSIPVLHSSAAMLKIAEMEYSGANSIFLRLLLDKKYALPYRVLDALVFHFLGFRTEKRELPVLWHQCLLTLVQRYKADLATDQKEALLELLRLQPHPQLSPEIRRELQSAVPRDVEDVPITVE
UniProt Q13443: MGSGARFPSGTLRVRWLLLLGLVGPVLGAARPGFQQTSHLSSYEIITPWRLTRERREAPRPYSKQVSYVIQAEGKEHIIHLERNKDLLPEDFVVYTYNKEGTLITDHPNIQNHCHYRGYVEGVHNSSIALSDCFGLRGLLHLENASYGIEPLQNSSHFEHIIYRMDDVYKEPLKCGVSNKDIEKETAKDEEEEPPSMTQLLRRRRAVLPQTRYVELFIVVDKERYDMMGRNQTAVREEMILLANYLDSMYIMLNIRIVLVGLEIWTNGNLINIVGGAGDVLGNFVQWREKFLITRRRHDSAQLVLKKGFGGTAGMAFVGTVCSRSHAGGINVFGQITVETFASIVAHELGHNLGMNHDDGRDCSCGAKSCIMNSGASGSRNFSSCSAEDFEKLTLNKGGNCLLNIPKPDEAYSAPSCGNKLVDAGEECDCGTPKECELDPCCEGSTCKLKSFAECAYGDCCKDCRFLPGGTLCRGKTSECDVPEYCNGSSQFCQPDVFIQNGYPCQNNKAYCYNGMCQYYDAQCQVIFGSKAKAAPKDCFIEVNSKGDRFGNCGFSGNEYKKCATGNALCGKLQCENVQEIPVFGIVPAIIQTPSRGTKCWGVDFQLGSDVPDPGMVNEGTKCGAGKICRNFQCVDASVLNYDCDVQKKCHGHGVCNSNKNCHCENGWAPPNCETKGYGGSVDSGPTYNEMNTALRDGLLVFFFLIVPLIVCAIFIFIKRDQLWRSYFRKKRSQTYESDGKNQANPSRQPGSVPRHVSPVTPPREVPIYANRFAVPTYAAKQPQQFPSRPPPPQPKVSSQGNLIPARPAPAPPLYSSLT
UniProt Q00765: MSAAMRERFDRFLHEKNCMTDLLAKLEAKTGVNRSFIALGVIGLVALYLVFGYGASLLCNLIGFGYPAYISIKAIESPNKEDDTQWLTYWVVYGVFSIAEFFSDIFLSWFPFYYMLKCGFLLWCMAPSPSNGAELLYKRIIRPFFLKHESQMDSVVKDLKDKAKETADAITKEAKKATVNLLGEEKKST
UniProt Q13153, whole entry: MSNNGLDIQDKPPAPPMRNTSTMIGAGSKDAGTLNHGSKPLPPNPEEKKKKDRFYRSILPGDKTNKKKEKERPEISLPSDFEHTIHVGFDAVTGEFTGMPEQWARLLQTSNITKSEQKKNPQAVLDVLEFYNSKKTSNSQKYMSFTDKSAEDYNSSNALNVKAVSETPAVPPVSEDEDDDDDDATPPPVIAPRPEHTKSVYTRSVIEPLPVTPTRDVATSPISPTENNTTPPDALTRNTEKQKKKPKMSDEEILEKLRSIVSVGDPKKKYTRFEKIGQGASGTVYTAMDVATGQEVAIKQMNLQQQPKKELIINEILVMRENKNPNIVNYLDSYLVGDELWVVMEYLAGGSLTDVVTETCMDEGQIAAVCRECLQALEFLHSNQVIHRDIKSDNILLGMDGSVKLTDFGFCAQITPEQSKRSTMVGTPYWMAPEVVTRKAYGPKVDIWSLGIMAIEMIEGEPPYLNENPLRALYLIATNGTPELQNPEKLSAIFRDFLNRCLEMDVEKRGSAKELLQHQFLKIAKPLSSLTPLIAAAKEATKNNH
UniProt Q10589, whole entry: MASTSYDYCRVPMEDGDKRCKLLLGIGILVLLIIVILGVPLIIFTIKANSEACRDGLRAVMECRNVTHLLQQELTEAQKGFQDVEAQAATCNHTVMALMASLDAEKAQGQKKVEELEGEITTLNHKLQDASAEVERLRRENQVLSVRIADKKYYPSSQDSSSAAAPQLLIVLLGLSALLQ
UniProt Q13216, whole entry: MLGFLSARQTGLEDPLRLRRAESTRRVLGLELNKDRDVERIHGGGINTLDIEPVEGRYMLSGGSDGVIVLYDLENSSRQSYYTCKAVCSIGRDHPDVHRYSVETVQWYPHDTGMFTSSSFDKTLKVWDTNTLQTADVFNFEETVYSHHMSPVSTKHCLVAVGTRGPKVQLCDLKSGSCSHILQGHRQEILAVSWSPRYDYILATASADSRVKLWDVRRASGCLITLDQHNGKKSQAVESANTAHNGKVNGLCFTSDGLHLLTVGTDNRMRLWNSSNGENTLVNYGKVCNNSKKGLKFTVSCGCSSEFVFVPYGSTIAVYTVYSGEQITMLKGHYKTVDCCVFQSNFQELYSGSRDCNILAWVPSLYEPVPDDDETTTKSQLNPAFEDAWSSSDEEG
UniProt Q13614, whole entry: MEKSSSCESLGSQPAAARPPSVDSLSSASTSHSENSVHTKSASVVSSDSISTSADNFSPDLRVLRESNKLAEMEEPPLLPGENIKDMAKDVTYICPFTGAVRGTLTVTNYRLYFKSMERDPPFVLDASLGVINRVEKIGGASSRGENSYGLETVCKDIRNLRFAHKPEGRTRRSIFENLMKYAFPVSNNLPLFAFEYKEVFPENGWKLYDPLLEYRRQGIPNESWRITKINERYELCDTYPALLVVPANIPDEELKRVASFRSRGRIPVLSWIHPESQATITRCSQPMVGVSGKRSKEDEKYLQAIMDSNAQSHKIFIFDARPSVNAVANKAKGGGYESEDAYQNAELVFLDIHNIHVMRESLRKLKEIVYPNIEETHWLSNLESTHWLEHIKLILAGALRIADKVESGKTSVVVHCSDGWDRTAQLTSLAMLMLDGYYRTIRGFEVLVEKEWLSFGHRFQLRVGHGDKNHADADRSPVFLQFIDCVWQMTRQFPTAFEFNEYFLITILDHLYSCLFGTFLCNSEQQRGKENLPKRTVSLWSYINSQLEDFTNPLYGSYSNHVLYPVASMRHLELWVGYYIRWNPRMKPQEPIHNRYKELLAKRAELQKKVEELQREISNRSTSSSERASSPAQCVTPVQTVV
UniProt Q00839, whole entry: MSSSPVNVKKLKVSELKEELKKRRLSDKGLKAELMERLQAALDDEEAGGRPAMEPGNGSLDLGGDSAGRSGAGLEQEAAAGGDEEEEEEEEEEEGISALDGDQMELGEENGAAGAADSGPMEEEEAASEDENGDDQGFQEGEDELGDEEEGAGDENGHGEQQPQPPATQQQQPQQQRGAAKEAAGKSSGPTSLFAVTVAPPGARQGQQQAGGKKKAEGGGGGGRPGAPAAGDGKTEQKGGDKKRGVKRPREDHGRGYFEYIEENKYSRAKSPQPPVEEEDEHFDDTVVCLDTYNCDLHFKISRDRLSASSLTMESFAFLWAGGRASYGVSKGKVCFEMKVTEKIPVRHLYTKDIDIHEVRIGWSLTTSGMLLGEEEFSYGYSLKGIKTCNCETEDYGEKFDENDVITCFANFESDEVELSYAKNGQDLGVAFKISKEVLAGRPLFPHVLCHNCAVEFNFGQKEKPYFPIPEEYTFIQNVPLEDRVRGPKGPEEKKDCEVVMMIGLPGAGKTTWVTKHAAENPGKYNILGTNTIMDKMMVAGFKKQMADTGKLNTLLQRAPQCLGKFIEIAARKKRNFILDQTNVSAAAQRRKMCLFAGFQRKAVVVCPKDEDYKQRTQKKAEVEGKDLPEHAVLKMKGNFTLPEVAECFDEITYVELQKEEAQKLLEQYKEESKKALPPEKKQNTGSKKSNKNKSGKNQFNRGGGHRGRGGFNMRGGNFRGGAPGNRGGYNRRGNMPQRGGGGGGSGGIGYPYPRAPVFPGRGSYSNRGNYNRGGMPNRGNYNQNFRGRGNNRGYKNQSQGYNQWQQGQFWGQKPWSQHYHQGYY
UniProt Q13616, whole entry: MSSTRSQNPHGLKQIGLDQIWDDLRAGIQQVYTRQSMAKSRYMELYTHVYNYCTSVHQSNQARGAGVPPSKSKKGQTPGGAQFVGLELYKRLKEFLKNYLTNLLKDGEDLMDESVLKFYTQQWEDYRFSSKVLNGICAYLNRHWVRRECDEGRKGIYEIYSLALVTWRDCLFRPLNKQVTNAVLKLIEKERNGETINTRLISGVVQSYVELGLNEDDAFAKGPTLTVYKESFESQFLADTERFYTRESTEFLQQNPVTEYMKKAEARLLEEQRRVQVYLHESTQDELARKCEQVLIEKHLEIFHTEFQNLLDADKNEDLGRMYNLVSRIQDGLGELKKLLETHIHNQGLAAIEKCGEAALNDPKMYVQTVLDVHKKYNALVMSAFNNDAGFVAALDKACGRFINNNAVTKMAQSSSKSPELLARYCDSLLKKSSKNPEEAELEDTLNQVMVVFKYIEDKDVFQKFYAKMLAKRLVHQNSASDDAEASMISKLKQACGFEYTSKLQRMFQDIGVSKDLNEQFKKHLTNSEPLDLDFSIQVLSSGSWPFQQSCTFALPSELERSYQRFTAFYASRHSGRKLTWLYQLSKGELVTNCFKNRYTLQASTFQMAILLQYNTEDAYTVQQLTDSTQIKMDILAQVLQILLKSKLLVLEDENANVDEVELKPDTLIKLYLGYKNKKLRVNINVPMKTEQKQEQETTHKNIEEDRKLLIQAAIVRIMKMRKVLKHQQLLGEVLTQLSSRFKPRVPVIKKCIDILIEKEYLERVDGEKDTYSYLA
UniProt Q13277: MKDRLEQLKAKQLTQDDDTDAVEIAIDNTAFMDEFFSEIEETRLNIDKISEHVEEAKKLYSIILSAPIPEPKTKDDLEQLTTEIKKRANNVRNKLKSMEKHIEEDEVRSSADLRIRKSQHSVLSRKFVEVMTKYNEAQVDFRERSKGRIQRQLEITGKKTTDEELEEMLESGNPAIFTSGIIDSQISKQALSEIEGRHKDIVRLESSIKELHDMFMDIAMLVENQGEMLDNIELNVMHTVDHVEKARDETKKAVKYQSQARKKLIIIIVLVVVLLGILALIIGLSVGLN
UniProt Q05932: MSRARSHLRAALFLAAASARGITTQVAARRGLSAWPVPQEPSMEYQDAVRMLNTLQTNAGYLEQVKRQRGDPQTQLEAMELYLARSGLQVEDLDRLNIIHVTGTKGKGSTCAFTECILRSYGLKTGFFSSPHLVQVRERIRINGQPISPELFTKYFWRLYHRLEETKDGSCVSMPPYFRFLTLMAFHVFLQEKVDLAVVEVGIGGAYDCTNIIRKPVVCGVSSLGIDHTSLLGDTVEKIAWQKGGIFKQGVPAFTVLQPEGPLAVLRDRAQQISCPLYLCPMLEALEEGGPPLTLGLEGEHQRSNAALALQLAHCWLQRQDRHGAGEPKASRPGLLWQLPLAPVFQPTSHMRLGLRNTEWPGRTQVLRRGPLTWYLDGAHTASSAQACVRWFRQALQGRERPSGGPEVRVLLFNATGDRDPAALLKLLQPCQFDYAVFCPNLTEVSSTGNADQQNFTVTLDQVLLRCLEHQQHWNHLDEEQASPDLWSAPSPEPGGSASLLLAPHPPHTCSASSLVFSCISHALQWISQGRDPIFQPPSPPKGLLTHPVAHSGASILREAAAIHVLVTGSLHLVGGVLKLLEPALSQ

± gives the standard deviation of the averaged measurements. This is a selection; strong and weak results do not stand in their true shares. Most entries show no effect beyond the scatter of the controls.

Compound in the assay: Nc1ncnc2c1ncn2[C@@H]1O[C@H](COP(=O)(O)OP(=O)(O)OP(=O)(O)O)[C@@H](O)[C@H]1O [adenosine triphosphate]
Nature of the assay: NP40-soluble protein abundance relative to vehicle (solubility fold change) (ratio); higher = more soluble protein in presence of ATP. The method in brief: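 Crude Jurkat lysate, prepared by Dounce homogenisation, was exposed to eight concentrations from 0.1 to 10 mM for 10 min at room temperature and then 3 min at 37 °C. Solubilisation used 0.8% NP40 with benzonase for 60 min at 4 °C, followed by ultracentrifugation and TMT labelling of the supernatant for LC-MS/MS. After vsn normalisation of intensities, each value is the fold change against the detergent-processed vehicle within each replicate, across three independent experiments.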

As to PLCB3 (UniProt Q01970), the NP40-soluble protein abundance (concentration: 0.1mM) worked out at 1.01 ± 0.061 and the NP40-soluble protein abundance (concentration: 0.5mM) amounted to 1.01 ± 0.013.

In the case of UniProt Q12931 and related entries, the NP40-soluble protein abundance is 1.03 ± 0.076 (concentration: 0.1mM) and 1.04 ± 0.046 (concentration: 0.5mM).

In the case of UniProt Q13951-2|Q13951, the NP40-soluble protein abundance (concentration: 0.1mM) was determined as 0.9788 ± 0.0094 and the NP40-soluble protein abundance (concentration: 0.5mM) came out at 0.9976 ± 0.0026.

Regarding RIPK1 (UniProt Q13546), the NP40-soluble protein abundance reads like this: (concentration: 0.1mM) 1.05 ± 0.054; (concentration: 0.5mM) 1.04 ± 0.074.

Regarding BYSL (UniProt Q13895), the NP40-soluble protein abundance is, setting by setting: (concentration: 0.1mM) 0.964 ± 0.067; (concentration: 0.5mM) 1.03 ± 0.033.

For the target FKBP5 (UniProt Q13451), the NP40-soluble protein abundance came out at 1.01 ± 0.032 (concentration: 0.1mM) and 1.03 ± 0.066 (concentration: 0.5mM).

Regarding UniProt Q13370 and related entries, the NP40-soluble protein abundance reads like this: (concentration: 0.1mM) 1 ± 0.17; (concentration: 0.5mM) 1.04 ± 0.051.

For “UniProt Q01432-5|Q01432 and related entries”, the NP40-soluble protein abundance by setting is: (concentration: 0.1mM) 1.04 ± 0.048; (concentration: 0.5mM) 1.07 ± 0.022.

On to ADAM9 (UniProt Q13443), for which the NP40-soluble protein abundance (concentration: 0.1mM) amounted to 0.968 ± 0.031 and the NP40-soluble protein abundance (concentration: 0.5mM) is 0.953 ± 0.084.

As to REEP5 (UniProt Q00765), the NP40-soluble protein abundance stood at 0.889 ± 0.07 (concentration: 0.1mM) and 0.919 ± 0.048 (concentration: 0.5mM).

Take PAK1 (UniProt Q13153): the NP40-soluble protein abundance is 0.981 ± 0.025 (concentration: 0.1mM) and 1.02 ± 0.043 (concentration: 0.5mM).

For the target UniProt Q10589 and related entries, the NP40-soluble protein abundance (concentration: 0.1mM) turned out to be 1.01 ± 0.13 and the NP40-soluble protein abundance (concentration: 0.5mM) stood at 1 ± 0.14.

On to CDC20 (UniProt Q12834), for which the NP40-soluble protein abundance reads like this: (concentration: 0.1mM) 0.965 ± 0.06; (concentration: 0.5mM) 1.04 ± 0.029.

Take ERCC8 (UniProt Q13216): the NP40-soluble protein abundance is, setting by setting: (concentration: 0.1mM) 0.986 ± 0.023; (concentration: 0.5mM) 0.99 ± 0.056.

For the target EP300 (UniProt Q09472), the NP40-soluble protein abundance came to 1.02 ± 0.035 (concentration: 0.1mM) and 0.975 ± 0.012 (concentration: 0.5mM).

Take MTMR2 (UniProt Q13614): the NP40-soluble protein abundance is, setting by setting: (concentration: 0.1mM) 1.02 ± 0.057; (concentration: 0.5mM) 1.06 ± 0.034.

On to UniProt Q00839 and related entries, for which the NP40-soluble protein abundance is, setting by setting: (concentration: 0.1mM) 0.891 ± 0.17; (concentration: 0.5mM) 1.04 ± 0.047.

On to CUL1 (UniProt Q13616), for which the NP40-soluble protein abundance is 1.01 ± 0.076 (concentration: 0.1mM) and 1.02 ± 0.033 (concentration: 0.5mM).

Consider UniProt Q13439-4|Q13439-5|Q13439, for which the NP40-soluble protein abundance reads like this: (concentration: 0.1mM) 0.987 ± 0.022; (concentration: 0.5mM) 0.998 ± 0.07.

As for UniProt Q13277 and related entries, the NP40-soluble protein abundance was 1.02 ± 0.15 (concentration: 0.1mM) and 0.972 ± 0.023 (concentration: 0.5mM).

As to LGALS3BP (UniProt Q08380), the NP40-soluble protein abundance is, setting by setting: (concentration: 0.1mM) 0.96 ± 0.1; (concentration: 0.5mM) 0.951 ± 0.083.

With UniProt Q05932 and related entries, the NP40-soluble protein abundance by setting is: (concentration: 0.1mM) 1.07 ± 0.096; (concentration: 0.5mM) 1.02 ± 0.099.
